Measured values reported in the supplement of paper PMC10849652.
Some of the results follow.

Protein sequences, listed by entry. Tags and fused reporters are not part of them. Lines headed by an entry give the natural chain unless they say otherwise; changes in a name come on top.
UniProt Q9UG01, whole entry, looked up: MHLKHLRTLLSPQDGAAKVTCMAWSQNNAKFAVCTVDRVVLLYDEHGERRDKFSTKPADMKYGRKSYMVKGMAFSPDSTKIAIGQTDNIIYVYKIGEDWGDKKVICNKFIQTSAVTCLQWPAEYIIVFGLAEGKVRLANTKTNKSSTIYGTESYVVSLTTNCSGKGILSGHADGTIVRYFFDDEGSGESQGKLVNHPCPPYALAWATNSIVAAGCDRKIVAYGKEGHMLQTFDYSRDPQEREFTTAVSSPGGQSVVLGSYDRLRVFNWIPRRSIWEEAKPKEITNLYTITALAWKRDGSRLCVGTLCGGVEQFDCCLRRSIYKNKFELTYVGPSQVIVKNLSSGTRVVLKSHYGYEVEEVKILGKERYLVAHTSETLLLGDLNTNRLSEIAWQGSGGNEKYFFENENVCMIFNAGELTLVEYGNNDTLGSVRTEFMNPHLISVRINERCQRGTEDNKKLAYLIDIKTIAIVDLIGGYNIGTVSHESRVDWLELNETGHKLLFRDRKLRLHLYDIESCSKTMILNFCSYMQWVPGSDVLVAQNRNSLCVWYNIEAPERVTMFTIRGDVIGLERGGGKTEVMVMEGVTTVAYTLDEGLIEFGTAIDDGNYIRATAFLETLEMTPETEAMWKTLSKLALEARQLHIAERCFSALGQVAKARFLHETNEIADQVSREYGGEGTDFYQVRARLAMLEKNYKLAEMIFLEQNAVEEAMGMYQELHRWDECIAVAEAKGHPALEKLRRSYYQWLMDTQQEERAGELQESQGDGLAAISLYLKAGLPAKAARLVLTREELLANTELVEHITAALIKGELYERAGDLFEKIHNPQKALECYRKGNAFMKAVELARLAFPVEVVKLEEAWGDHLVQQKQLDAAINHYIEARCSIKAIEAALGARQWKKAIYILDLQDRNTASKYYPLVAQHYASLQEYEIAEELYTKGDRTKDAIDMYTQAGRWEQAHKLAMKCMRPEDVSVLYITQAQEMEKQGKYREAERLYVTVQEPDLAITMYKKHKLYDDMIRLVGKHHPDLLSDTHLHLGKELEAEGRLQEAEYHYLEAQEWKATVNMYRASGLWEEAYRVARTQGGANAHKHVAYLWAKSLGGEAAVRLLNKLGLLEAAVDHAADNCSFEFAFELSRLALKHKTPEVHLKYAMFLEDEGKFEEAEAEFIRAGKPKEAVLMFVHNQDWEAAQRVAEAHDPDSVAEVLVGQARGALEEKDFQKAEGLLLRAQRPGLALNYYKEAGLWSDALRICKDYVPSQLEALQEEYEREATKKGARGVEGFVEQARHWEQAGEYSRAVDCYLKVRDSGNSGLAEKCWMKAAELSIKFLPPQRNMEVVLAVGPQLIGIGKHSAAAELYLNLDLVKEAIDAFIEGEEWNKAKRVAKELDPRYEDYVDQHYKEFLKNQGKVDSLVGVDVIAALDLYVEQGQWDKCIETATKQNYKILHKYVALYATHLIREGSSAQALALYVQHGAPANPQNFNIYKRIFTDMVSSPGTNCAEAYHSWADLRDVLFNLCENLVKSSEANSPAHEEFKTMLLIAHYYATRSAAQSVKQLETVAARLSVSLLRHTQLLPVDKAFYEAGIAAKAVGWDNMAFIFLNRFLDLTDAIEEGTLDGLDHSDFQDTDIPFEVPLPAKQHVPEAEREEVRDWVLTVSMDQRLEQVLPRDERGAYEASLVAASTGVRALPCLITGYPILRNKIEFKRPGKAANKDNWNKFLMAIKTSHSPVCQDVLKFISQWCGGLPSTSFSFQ
UniProt Q96FT9: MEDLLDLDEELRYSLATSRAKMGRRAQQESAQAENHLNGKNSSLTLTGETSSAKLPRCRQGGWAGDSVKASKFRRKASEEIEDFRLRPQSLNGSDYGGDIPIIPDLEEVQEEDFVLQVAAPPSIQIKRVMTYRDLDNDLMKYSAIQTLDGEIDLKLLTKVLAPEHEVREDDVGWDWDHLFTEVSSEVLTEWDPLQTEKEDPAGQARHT
UniProt Q9H0C8: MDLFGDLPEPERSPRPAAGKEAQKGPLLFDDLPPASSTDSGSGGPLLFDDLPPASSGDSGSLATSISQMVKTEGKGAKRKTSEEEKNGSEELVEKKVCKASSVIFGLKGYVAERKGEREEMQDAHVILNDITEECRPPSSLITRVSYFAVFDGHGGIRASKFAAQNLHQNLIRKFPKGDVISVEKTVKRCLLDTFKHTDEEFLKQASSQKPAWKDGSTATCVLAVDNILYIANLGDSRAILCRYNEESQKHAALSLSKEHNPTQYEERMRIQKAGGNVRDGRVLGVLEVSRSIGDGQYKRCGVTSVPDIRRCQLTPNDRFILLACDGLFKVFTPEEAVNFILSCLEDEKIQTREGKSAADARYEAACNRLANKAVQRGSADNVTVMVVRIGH
UniProt P41134: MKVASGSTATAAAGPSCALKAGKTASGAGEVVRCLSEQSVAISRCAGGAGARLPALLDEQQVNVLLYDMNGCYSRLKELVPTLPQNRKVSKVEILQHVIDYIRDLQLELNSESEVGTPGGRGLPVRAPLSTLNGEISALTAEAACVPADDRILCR
UniProt Q96EW2: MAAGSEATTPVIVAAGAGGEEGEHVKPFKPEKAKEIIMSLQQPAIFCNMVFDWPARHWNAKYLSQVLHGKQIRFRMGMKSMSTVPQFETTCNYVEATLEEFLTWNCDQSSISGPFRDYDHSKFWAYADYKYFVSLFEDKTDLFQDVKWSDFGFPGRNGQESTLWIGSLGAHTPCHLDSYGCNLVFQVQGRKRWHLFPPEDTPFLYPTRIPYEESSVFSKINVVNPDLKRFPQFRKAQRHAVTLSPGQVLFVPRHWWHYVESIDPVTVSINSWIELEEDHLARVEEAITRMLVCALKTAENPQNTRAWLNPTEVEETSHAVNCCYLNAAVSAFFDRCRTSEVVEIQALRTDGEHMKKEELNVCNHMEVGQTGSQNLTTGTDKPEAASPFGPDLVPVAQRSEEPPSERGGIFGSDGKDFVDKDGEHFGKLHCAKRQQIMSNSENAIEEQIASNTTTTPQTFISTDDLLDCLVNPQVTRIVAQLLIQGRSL
UniProt P41252: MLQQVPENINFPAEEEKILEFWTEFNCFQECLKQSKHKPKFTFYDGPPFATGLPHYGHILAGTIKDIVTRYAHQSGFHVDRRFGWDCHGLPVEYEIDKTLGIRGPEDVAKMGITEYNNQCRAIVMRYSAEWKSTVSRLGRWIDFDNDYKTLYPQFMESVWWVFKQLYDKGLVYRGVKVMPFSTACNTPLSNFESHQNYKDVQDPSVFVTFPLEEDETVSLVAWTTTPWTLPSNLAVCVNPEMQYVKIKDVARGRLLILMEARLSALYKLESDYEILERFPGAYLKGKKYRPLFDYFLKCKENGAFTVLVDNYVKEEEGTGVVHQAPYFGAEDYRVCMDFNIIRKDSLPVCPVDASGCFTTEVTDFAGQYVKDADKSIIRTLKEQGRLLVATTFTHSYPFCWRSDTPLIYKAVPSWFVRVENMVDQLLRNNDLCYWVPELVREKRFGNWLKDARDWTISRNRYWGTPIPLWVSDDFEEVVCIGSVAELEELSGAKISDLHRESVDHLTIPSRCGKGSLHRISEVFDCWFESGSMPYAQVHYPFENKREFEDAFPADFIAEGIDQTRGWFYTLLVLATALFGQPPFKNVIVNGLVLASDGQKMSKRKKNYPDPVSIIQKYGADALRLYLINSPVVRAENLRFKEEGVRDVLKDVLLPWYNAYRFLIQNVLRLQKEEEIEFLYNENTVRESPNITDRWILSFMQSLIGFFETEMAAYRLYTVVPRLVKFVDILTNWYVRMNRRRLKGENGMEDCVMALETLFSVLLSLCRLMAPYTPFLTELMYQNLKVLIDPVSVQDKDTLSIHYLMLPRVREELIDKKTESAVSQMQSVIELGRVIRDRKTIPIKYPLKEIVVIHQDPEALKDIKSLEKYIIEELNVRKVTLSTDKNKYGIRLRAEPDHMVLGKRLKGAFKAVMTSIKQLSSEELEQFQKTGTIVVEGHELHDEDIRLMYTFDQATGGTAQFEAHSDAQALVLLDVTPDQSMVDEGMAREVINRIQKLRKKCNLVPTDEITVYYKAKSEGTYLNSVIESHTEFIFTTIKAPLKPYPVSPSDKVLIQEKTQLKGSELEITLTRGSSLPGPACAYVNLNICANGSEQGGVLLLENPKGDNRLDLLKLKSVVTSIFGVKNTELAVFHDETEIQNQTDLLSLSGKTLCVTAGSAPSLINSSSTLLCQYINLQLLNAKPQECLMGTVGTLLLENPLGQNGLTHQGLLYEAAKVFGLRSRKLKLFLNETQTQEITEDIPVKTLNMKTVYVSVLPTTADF
UniProt Q9NRR6: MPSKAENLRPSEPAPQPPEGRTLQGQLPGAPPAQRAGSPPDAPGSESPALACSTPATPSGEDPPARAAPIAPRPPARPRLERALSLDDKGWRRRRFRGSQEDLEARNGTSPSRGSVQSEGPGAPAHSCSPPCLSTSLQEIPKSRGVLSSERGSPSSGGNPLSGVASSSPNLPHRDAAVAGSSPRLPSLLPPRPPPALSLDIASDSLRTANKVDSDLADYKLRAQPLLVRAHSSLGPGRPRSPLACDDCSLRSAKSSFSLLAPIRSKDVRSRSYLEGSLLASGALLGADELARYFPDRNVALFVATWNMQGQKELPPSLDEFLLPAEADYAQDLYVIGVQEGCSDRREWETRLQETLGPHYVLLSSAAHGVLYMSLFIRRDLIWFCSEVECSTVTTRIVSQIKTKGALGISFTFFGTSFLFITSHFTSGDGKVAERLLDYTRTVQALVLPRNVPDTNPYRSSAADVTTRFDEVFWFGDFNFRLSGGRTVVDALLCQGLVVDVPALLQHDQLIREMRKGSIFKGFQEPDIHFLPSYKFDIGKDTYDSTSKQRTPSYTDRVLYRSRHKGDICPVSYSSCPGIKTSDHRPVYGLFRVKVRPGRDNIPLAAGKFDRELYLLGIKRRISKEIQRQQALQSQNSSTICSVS
UniProt Q9NZL4: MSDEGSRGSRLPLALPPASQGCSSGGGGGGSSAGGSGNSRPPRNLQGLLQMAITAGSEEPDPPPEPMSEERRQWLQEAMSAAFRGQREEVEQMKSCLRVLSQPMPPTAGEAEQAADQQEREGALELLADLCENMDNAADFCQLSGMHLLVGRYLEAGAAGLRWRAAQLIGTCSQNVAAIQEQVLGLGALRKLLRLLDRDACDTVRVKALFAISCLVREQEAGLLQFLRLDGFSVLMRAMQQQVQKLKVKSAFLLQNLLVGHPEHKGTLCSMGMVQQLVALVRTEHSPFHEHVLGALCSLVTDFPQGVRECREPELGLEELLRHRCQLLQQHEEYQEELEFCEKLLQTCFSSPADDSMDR
UniProt Q13907: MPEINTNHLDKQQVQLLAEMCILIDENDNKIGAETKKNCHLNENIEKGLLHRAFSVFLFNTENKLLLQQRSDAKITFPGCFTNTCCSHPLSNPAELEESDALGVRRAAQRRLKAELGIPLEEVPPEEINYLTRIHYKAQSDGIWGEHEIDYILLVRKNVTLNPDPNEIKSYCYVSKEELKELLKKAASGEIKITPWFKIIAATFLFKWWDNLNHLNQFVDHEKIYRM
UniProt Q6UWB1, whole entry, looked up: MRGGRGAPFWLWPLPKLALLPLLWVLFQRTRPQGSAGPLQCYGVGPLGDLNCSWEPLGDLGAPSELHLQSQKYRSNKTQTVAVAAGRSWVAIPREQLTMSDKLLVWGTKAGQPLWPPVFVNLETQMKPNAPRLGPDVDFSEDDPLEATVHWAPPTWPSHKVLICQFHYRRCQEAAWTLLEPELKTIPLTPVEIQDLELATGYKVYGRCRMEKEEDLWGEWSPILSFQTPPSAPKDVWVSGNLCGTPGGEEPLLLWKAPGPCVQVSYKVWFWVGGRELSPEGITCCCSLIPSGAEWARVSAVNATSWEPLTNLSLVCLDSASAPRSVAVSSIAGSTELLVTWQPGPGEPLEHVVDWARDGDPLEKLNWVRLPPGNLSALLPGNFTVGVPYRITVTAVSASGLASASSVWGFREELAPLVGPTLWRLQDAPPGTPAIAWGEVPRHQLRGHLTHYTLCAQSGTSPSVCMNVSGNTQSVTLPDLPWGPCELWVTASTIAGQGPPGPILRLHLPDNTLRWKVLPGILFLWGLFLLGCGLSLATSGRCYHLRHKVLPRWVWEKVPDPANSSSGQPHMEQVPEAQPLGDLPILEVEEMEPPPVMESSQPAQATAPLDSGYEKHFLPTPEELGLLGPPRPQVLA
UniProt Q9H7X7: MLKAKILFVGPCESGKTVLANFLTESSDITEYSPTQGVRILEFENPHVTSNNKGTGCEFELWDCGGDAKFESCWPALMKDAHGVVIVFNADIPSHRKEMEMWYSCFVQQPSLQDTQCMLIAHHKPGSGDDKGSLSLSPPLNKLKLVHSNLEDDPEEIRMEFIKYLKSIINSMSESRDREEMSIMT
UniProt Q9BUP3: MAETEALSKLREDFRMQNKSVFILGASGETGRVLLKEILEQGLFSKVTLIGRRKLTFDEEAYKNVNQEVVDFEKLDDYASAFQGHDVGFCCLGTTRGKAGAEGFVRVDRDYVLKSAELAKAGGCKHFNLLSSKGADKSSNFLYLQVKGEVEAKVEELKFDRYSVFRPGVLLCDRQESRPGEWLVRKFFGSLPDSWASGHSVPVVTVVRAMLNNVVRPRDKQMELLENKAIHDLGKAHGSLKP

Columns and labels:
Experiment in all cases: log2 fold change, soluble protein after heating vs DMSO (PISA); higher = thermal stabilisation; K562 lysate, 10 uM; active = over 0.2 and 3.5 SD of the protein, either way, in both replicates (recomputed)
erlotinib = compound: C#Cc1cccc(Nc2ncnc3cc(OCCOC)c(OCCOC)cc23)c1 [erlotinib]
Procedure, shortened: (§1)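 Following dounce homogenisation of K562 pellets in PBS pH 7.4 with 1 mM MgCl2, crude extract at 1 mg/mL protein was incubated for 30 min with 10 μM compound. Aliquots were then heated for 3 min over 48°C-58°C and pooled, NP-40 was added to 0.5% at 4°C, and soluble protein was recovered as the supernatant at 21,000xg for 90 min. Channel-sum-equalised TMTpro 16plex LC-MS/MS quantified this protein. Each value, from duplicates, is a log-two fold change in thermal stability relative to solvent controls.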

[1] = compound: C/C(=N\NC(=O)C1=CC(=CC=C1)S(=O)(=O)N2CCOCC2)/C3=C(C=CC(=C3)Cl)O
Procedure, shortened: as §1

[2] = compound: C1=CC(=CC=C1C2=NC3=C(N2)C=C(C=C3)C(=O)N)OC4=CC=C(C=C4)Cl
Procedure, shortened: as §1

[3] = compound: C1=CC2=C(C=CC(=C2)/C=C\3/C(=O)NC(=NCC4=CC=CS4)S3)N=C1
Procedure, shortened: as §1

[4] = compound: C1=CC=C(C=C1)C2=NC(=C(N2)C3=CC=NC=C3)C4=CC(=C(C=C4)Cl)O
Procedure, shortened: as §1

[5] = compound: C1=CC=C2C(=C1)C3=NNC4=CC=CC(=C43)C2=O
Procedure, shortened: as §1

IRAK-1-4 Inhibitor I = compound: C1COCCN1CCN2C3=CC=CC=C3N=C2NC(=O)C4=CC(=CC=C4)[N+](=O)[O-] [IRAK-1-4 Inhibitor I]
Procedure, shortened: as §1

[6] = compound: C1CCN(C1)C(=O)NC2=CC=CC(=C2)NC3=NC=C(C(=N3)NCCC4=CN=CN4)Br
Procedure, shortened: as §1

[7] = compound: C1CN(CCC1(CC2=CC=C(C=C2)Cl)N)C3=NC=NC4=C3C=CN4
Procedure, shortened: as §1

[8] = compound: C1=CC2=NC=CN=C2C=C1/C=C/3\C(=O)NC(=O)S3
Procedure, shortened: as §1

Measured: log2 fold change

IFT172 (UniProt Q9UG01)
inactive: erlotinib 0.119 | [1] 0.082 | [2] 0.031 | [3] -0.065 | [4] -0.002 | [5] -0.161 | IRAK-1-4 Inhibitor I 0.471

IGLL5 (UniProt B9A064)
inactive: erlotinib -0.137 | [1] 1.07 | [2] -0.133 | [3] -0.4 | [4] 0.503 | [5] -0.211 | [6] 0.072 | [7] -0.271 | IRAK-1-4 Inhibitor I -0.236

IMMT (UniProt Q16891)
inactive: erlotinib 0.008 | [1] 0.058 | [2] -0.176 | [3] 0.035 | [8] 0.024 | [4] -0.001 | [5] -0.031 | [6] 0.016 | [7] -0.026 | IRAK-1-4 Inhibitor I -0.007

Pulled one by one from the entries so far, two records:
IGLL5 (UniProt B9A064)
inactive: erlotinib -0.137 | [1] 1.07 | [2] -0.133 | [3] -0.4 | [4] 0.503 | [5] -0.211 | [6] 0.072 | [7] -0.271 | IRAK-1-4 Inhibitor I -0.236

IFT172 (UniProt Q9UG01)
inactive: erlotinib 0.119 | [1] 0.082 | [2] 0.031 | [3] -0.065 | [4] -0.002 | [5] -0.161 | IRAK-1-4 Inhibitor I 0.471

Later entries

INPP5D (UniProt Q92835)
inactive: erlotinib -0.044 | [2] 0

INIP (UniProt Q9NRY2)
inactive: erlotinib 0.075 | [1] 0.051 | [2] -0.116 | [3] -0.178 | [4] -0.088 | [5] -0.245 | IRAK-1-4 Inhibitor I -0.001

INHBE (UniProt P58166)
inactive: erlotinib -0.034 | [2] 0.084

HSPG2 (UniProt P98160)
inactive: erlotinib -0.024 | [1] 0.026 | [2] 0.008 | [3] -0.015 | [8] -0.005 | [4] 0.003 | [5] -0.037 | [6] -0.008 | [7] 0.03 | IRAK-1-4 Inhibitor I 0.001

IFT43 (UniProt Q96FT9)
inactive: erlotinib 0.106 | [1] -0.147 | [2] -0.318 | [3] -0.384 | [8] -0.141 | [4] -0.129 | [5] -0.046 | IRAK-1-4 Inhibitor I -0.31

IFT20 isoform 2 (UniProt Q8IY31)
inactive: erlotinib 0.057 | [1] -0.067 | [2] 0.038 | [3] 0.005 | [8] 0.035 | [4] -0.048 | [5] -0.027 | [6] 0.069 | [7] 0.025 | IRAK-1-4 Inhibitor I 0.023

ILKAP (UniProt Q9H0C8)
inactive: erlotinib -0.042 | [1] -0.01 | [2] -0.007 | [3] 0.027 | [8] -0.021 | [4] -0.005 | [5] 0.015 | [6] -0.022 | [7] -0.043 | IRAK-1-4 Inhibitor I 0.004

IMMP2L (UniProt Q96T52)
inactive: erlotinib 0.003 | [1] -0.138 | [2] -0.005 | [3] -0.049 | [8] 0.077 | [4] 0.092 | [5] 0.013 | [6] -0.03 | [7] -0.06 | IRAK-1-4 Inhibitor I 0.084

ID1 (UniProt P41134)
inactive: erlotinib -0.081 | [1] 0.032 | [2] 0.075 | [3] -0.034 | [8] -0.247 | [4] -0.041 | [5] 0.029 | IRAK-1-4 Inhibitor I 0.076

ING5 (UniProt Q8WYH8)
inactive: erlotinib 0.081 | [2] -0.021 | [8] 0.044 | [4] 0.068 | [6] -0.041 | [7] -0.068 | IRAK-1-4 Inhibitor I 0.125

HSPBAP1 (UniProt Q96EW2)
inactive: erlotinib 0.064 | [2] -0.098 | [8] -0.079 | [4] -0.072 | [6] 0.002 | [7] 0.031 | IRAK-1-4 Inhibitor I -0.002

INO80E (UniProt Q8NBZ0)
inactive: erlotinib 0.008 | [2] 0.072 | [8] 0.175 | [4] 0.166 | [6] 0.02 | [7] 0.088 | IRAK-1-4 Inhibitor I -0.111

IFI16 (UniProt Q16666)
inactive: erlotinib 0.081 | [2] -0.037

HSPA8 (UniProt P11142)
inactive: erlotinib -0.022 | [1] 0.003 | [2] 0.008 | [3] 0.002 | [8] -0.028 | [4] -0.004 | [5] 0.038 | [6] 0.016 | [7] -0.009 | IRAK-1-4 Inhibitor I -0.008

IARS (UniProt P41252)
inactive: erlotinib 0.022 | [1] 0.061 | [2] -0.011 | [3] 0.013 | [8] 0.02 | [4] 0.006 | [5] -0.035 | [6] 0.006 | [7] 0.01 | IRAK-1-4 Inhibitor I -0.006

IGHG1 (UniProt P01857)
inactive: erlotinib -0.05 | [1] 0.364 | [2] -0.293 | [3] 0.093 | [8] 0.562 | [4] 0.8 | [5] 0.013 | IRAK-1-4 Inhibitor I -0.264

INPP5E (UniProt Q9NRR6)
inactive: erlotinib 0.118 | [2] 0.136

HSPBP1 (UniProt Q9NZL4)
inactive: erlotinib 0.022 | [1] 0.052 | [2] -0.003 | [3] -0.025 | [8] -0.017 | [4] 0.003 | [5] -0.018 | [6] -0.036 | [7] 0.05 | IRAK-1-4 Inhibitor I -0.004

IGLC3 (UniProt P0DOY3)
inactive: erlotinib -0.225 | [2] -0.208 | [8] 0.01

IL10RB (UniProt Q08334)
inactive: erlotinib 0.021 | [1] 0.259 | [2] -0.08 | [3] -0.083 | [4] 0.098 | [5] -0.046 | [6] 0.056 | [7] -0.004 | IRAK-1-4 Inhibitor I -0.007

HYOU1 (UniProt J3QL06)
inactive: erlotinib -0.067 | [1] 0.473 | [2] -0.074 | [3] -0.088 | [4] 0.12 | [5] 0.052 | [6] -0.165 | [7] -0.013 | IRAK-1-4 Inhibitor I -0.162

IDI1 (UniProt Q13907)
inactive: erlotinib -0.003 | [1] -0.004 | [2] 0.006 | [3] 0.007 | [8] 0.007 | [4] 0.032 | [5] 0.017 | [6] -0.029 | [7] 0.024 | IRAK-1-4 Inhibitor I 0.004

IFI30 (UniProt P13284)
inactive: erlotinib 0.039 | [1] -0.022 | [2] -0.039 | [3] -0.012 | [8] 0.046 | [4] 0.091 | [5] -0.113 | [6] 0.005 | [7] 0.018 | IRAK-1-4 Inhibitor I -0.005

IL27RA (UniProt Q6UWB1)
inactive: erlotinib -0.131 | [2] -0.424 | [8] -0.161 | [4] 0.024 | [6] -0.023 | [7] -0.064 | IRAK-1-4 Inhibitor I -0.042

IFT22 (UniProt Q9H7X7)
inactive: erlotinib -0.077 | [2] 0.036 | [8] -0.158 | [4] 0.181 | [6] -0.063 | [7] -0.1 | IRAK-1-4 Inhibitor I 0.118

HTATIP2 isoform 3 (UniProt Q9BUP3)
inactive: erlotinib 0.011 | [1] -0.017 | [2] -0.003 | [3] 0.031 | [8] 0.004 | [4] -0.009 | [5] -0.04 | [6] -0.051 | [7] -0.051 | IRAK-1-4 Inhibitor I -0.009

IDH3G (UniProt P51553)
inactive: erlotinib -0.037 | [1] -0.056 | [2] 0.013 | [3] 0 | [8] -0.007 | [4] -0.098 | [5] 0.06 | [6] -0.029 | [7] -0.006 | IRAK-1-4 Inhibitor I 0.032
